Test results published in PMC12362813.
Results are given in words; binding and its absence hold for the method and conditions named. Binding seen in cells or lysates may run through a third protein. These calls come from enrichment with a bait or labelling near it, and not all partners need be listed.

The chains behind the UniProt entries cited, without tags or fusion partners.
UniProt Q86WV6: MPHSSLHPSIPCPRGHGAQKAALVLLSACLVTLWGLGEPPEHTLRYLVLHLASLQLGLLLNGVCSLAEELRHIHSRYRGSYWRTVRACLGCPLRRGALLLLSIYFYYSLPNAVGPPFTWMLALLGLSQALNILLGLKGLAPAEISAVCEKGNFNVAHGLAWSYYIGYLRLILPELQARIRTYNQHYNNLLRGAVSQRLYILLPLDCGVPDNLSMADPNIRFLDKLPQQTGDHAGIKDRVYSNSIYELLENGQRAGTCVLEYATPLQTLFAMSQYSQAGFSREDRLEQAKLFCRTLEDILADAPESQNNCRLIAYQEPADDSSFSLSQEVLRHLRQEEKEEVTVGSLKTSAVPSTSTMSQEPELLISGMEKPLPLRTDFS
UniProt O95816: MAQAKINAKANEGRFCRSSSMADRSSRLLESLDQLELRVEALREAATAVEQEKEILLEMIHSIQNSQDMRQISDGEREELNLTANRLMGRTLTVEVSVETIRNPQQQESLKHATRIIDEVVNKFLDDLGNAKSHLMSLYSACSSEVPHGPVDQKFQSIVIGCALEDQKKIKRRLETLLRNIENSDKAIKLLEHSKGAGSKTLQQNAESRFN
UniProt P19474: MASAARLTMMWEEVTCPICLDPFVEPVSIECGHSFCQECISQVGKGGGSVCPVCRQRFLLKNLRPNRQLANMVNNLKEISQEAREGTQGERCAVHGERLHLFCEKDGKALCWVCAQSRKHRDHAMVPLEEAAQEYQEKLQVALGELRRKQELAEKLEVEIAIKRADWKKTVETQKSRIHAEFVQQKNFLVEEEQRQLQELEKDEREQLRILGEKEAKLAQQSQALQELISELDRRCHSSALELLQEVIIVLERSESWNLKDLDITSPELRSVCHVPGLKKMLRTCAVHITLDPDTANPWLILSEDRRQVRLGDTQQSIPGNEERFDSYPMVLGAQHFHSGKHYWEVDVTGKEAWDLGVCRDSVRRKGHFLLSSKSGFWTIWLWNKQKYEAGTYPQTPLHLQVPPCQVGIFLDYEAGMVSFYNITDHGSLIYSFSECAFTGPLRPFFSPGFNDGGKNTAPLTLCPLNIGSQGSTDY
UniProt Q9UNE7: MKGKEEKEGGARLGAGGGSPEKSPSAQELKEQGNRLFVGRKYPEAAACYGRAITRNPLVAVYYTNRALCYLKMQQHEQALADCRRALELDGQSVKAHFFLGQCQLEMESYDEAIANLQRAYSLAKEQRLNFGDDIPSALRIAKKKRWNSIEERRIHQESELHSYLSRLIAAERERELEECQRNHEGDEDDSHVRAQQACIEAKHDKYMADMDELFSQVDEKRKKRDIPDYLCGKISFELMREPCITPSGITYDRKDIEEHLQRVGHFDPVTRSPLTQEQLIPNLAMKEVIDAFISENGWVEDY

biological target: Flag-STING (UniProt Q86WV6); assay: affinity purification with mass spectrometry; Flag-STING transfected into SiHa cells for 48 h; lysate precipitated with anti-Flag antibody, IgG as negative control; SDS-PAGE, silver stain, LC-MS/MS (Q Exactive HF), MaxQuant

Substance	binding
BAG2 (endogenous) (from UniProt O95816 1-211)	binds
TRIM21 (endogenous) (from UniProt P19474 1-475) (enzyme)	binds
STUB1 (endogenous) (from UniProt Q9UNE7 1-303) (enzyme)	binds
